{"source": "patent US20110129932A1", "about": "“Lipoprotein Assay” (L3 TECHNOLOGY LIMITED, priority 2006, published 2011)", "key": {"LDL [1]": {"system": "LDL", "assay": "K-37 fluorescence in LDL with and without octanoate (Example 4)"}, "LDL [2]": {"system": "LDL", "assay": "Nile Red fluorescence in LDL with and without octanoate (Example 5)"}, "HDL": {"system": "HDL", "assay": "Nile Red discrimination between lipoprotein classes (Examples 3 and 5)"}}, "data": [{"molecule": "CN(C)c1ccc(/C=C/C(=O)c2ccc(S(=O)(=O)C(F)F)cc2)cc1", "note": "[K-37, 4-dimethylamino-4′-difluoromethyl-sulphonyl-benzylidene-acetophenone]", "values": [{"measurement": "Fluorescence Intensity", "setting": "LDL [1]; 0.5 mM K-37 plus 5 mM LDL", "value": 213500, "unit": "units"}, {"measurement": "Fluorescence Intensity", "setting": "LDL [1]; 0.5 mM K-37 plus 5 mM LDL + 0.1 M sodium octanoate", "value": 209700, "unit": "units"}]}, {"molecule": "CCN(CC)c1ccc2nc3c4ccccc4c(=O)cc-3oc2c1", "note": "[Nile Red]", "values": [{"measurement": "Fluorescence Intensity", "setting": "LDL [2]; 0.5 mM Nile Red plus 5 mM LDL", "value": 187.532, "unit": "units"}, {"measurement": "Fluorescence Intensity", "setting": "LDL [2]; 0.5 mM Nile Red plus 5 mM LDL + 50 mM octanoate", "value": 183.786, "unit": "units"}, {"measurement": "fluorescence in HDL relative to VLDL and LDL", "setting": "HDL; excitation at 460 nm", "value": "about 2 times"}, {"measurement": "fluorescence enhancement in HDL relative to VLDL and LDL", "setting": "HDL; excited at 460 nm, emission 620 nm", "value": "twice"}, {"measurement": "fluorescence in HDL relative to VLDL and LDL", "setting": "HDL; excited at 600 nm", "value": "about 5 times"}, {"measurement": "fluorescence in HDL relative to VLDL and LDL", "setting": "HDL; excited at 600 nm, listed as Nile red", "value": "> 5", "unit": "times"}]}]}
